In publication PMC11732012 one finds binding data, which are given here for 1 molecule.

No constants are given. Whether binding was seen depends on the method and setting. Binding seen in cells or lysates may run through a third protein. These calls come from enrichment with a bait or labelling near it, and not all partners need be listed.

The assay has as its target EhVps35C (E. histolytica (endogenous in HM1:IMSS trophozoites)). As to the kind of experiment: affinity purification with mass spectrometry; immunoprecipitates of trophozoite lysate with α-EhVps35 antibodies, digested, UPLC and Synapt G2-Si HDMSE; hits chosen by comparison with earlier proteomes of the actin cytoskeleton.

B1: Profilin 1 (protein, UniProt P49230 1-130)
chain: MSWQSYVDSFLVGAGKGMGGAIIGLQGGVWAASANCTPSAQESVAIGTACASNIAGLQQTGVVIGGKKYMITRVDADEGTAMGKKGAEGISIYKTKQAVIIGYFSDASVSAGQNSDATYKCAKYLMDAGY
With B1, the binding result was “binds”.
